Measured values from PubChem BioAssay AID2685 (National Center for Advancing Translational Sciences (NCATS), 2010).
The list shows a part of the results. The main result of the screen is listed elsewhere. These columns were measured beside it and carry no call. The list favours compounds with an active or inconclusive main result. The note in brackets gives the kind of curve behind each potency; many fits are weak.

Test: qHTS Assay for Lipid Storage Modulators in Drosophila S3 Cells;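 for cell number change: cells counted by Cell Tracker Red CMTPX staining in the red channel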
Details: BODIPY lipid droplet fluorescence, 18-24 h; for cell number change: measured here: cell count max response, cells fed with added oleic acid
Summary of the method: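 Drosophila S3 cells got compounds at several concentrations plus oleic acid (400 uM solution). Laser-scanning cytometry with 488 nm excitation read lipid droplets at 500-530 nm and cells at 575-640 nm. Percent activity was relative to 20 uM Triacsin C.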

[1] = measured here: cell number channel AC50, cells fed with added oleic acid
[2] = measured here: lipid fluorescence (Fed channel) AC50, cells fed with added oleic acid

| Structure (SMILES) | cell number change | AC50 [1] | AC50 [2] |
| --- | --- | --- | --- |
| COc1cccc(C(=O)/C=C2\Sc3ccccc3N2C)c1 | 28.2% | 1.16 µM [rising, full curve] | 1.46 µM [rising, full curve] |
| Cc1cc(C)nc(N/N=C/C(Cl)=C/c2ccccc2)n1 | 98.6% | 9.2 µM [rising, partial curve] | 2.06 µM [rising, partial curve] |
| O=C(N/N=C/c1ccco1)c1ccccc1OCc1ccc(Br)cc1 | – | – | 2.31 µM [rising, single point] |
| Cc1c(C(=S)Nc2ccccc2)cnn1-c1ccc([N+](=O)[O-])cc1 | -10.5% | – | 0.411 µM [rising, single point] |
| COc1ccccc1NS(=O)(=O)c1cccc(C(=O)N/N=C/c2c(CO)cnc(C)c2O)c1 | 5.83% | – | 0.58 µM [rising, full curve, poor fit] |
| CCNS(=O)(=O)c1ccc(OC)c(C(=O)NC2CCCCC2)c1 | -27.9% | – | – |
| COc1ccc(NS(=O)(=O)c2ccc(NC(C)=O)cc2)cc1OC | – | – | 29.1 µM [falling, single point] |
| CCC(O)CC(C(=O)NNc1ccccc1)C(=O)NNc1ccccc1 (stereo not drawn) | 21.8% | – | – |
| COc1cc(/C=N/NC(=O)CCN2CCN(C)CC2)cc2c1OCO2 | 6.49% | – | 6.51 µM [falling, single point] |
| CC(=O)Oc1c(/C=C(\C#N)C(N)=O)[nH]c2ccccc12 | -65.3% | 18.4 µM [falling, single point] | 20.6 µM [falling, single point] |
| CCC(=O)N/N=C/c1ccc(-c2ccc(Cl)cc2)o1 | 6.03% | – | 0.13 µM [falling, full curve, poor fit] |
| O=C(CN(CC1CCCO1)C(=O)CNS(=O)(=O)c1ccc(Cl)cc1)NC1CCCCC1 (stereo not drawn) | – | – | 4.11 µM [rising, single point] |
| O=S(=O)(Nc1nc2c(s1)CCCC2)c1ccc(F)cc1 | 26.2% | – | 29.1 µM [rising, single point] |
| COc1ccc(CNC(=O)C(C)N(Cc2ccco2)C(=O)c2snc(C(N)=O)c2N)cc1 (stereo not drawn) | 35% | 2.59 µM [rising, full curve] | 0.517 µM [rising, partial curve] |
| CCCCN(N=Nc1nonc1OC)c1nonc1OC | 32.6% | – | 7.31 µM [rising, partial curve] |
| O=C(/C=C/c1cn(CC(O)CN2CCCCC2)c2ccccc12)c1cccs1 (stereo not drawn) | -9.03% | – | – |
| COc1ccc(C(O)(CCN2CCOCC2)c2ccccc2)cc1 (stereo not drawn) | 0.185% | – | 7.31 µM [rising, partial curve] |
| O=C(NCc1ccco1)C(=O)N1CCCC1 | -13.3% | – | 25.9 µM [falling, single point] |
| CC12CCC(=O)N1C(C(=O)NCCN1C(=O)S/C(=C\c3ccccc3F)C1=O)CS2 (stereo not drawn) | -3.49% | – | 23.1 µM [falling, single point] |
| O=C(COc1nncc2ccccc12)NCC(F)(F)F | – | 0.0058 µM [falling, full curve, poor fit] | – |
| Cc1nc(NCCc2ccccc2)sc1C(=O)O | -19% | – | – |

| Structure (SMILES) | cell number change | AC50 [1] | AC50 [2] |
| --- | --- | --- | --- |
| CCOc1cc(-c2nn3cnnc3s2)cc(OCC)c1OCC | – | 6.51 µM [rising, single point] | 0.00461 µM [falling, full curve, poor fit] |
| COc1cccc(C2=CC(c3cccc(OC)c3OC)n3nnnc3N2)c1 (stereo not drawn) | – | – | 0.58 µM [rising, full curve, poor fit] |
| O=C(c1ccccc1Br)N1CCN(c2ccc([N+](=O)[O-])c(N3CCOCC3)c2)CC1 | -14.3% | 1.3 µM [rising, full curve] | – |
| CN(C)c1ccc(N2C(=O)CSC2=S)cc1 | -9.99% | – | 0.146 µM [falling, full curve] |
| Cc1cc(-c2ccccc2)n(-c2ccccc2)n1 | 6.35% | – | 0.58 µM [rising, single point] |
| COc1cc(CNCc2ccc(OC)c(OC)c2OC)cc(OC)c1 | 13.8% | – | – |
| CNC(=O)c1ccsc1NC(=O)C1CCN(S(=O)(=O)c2ccc(Cl)s2)CC1 | 65.1% | 13 µM [rising, partial curve, poor fit] | – |
| Cc1ccc(OCCn2c(=S)[nH]c3ccccc32)c(C(C)C)c1 | -53% | 8.2 µM [falling, partial curve] | – |
| CC(=O)Nc1cccc(OC(=O)COc2ccc(Br)cc2)c1 | 54.9% | 0.92 µM [rising, full curve] | 29.1 µM [rising, single point] |
| O=C(c1cncc(Br)c1)N1CCN(S(=O)(=O)c2ccc(Cl)cc2)CC1 | 23.7% | – | – |
| Cc1c(N=C2N=C(NC(=O)c3ccc(F)cc3)c3ccccc32)c(=O)n(-c2ccccc2)n1C | 2.15% | – | – |
| Fc1ccc(-c2csc3ncnc(N4CCN(Cc5ccccc5)CC4)c23)cc1 | 25.2% | 2.06 µM [rising, full curve, poor fit] | 29.1 µM [rising, single point] |
| O=C(NC1CCSc2ccccc21)c1cc([N+](=O)[O-])ccc1N1CCOCC1 (stereo not drawn) | – | 6.51 µM [rising, single point] | – |
| Cc1ccccc1N1CCN(C2CCCN(C(=O)CCN3CCCCC3=O)C2)CC1 (stereo not drawn) | 5.81% | – | 29.1 µM [rising, single point] |
| Cc1cc(C)c(NC(=S)NCC2CCN(C(C)c3ccccc3)C2)c(C)c1 (stereo not drawn) | -58.1% | 16.4 µM [falling, partial curve, poor fit] | 29.1 µM [falling, single point] |
| C=CCSC1=NN2CCS(=O)(=O)N=C2S1 | 71.9% | – | – |
| N#C/C(=C/c1ccc([N+](=O)[O-])cc1)C(=O)Nc1ccccc1O | -5.79% | 6.51 µM [rising, single point] | 32.6 µM [falling, single point] |
| OC(COc1ccccc1)CN1CCN(Cc2ccc3c(c2)OCO3)CC1 (stereo not drawn) | -0.919% | – | 0.184 µM [falling, partial curve, poor fit] |
| CC1CCCC(NC(=O)COC(=O)c2cccnc2Cl)C1C (stereo not drawn) | -44.2% | 29.1 µM [falling, single point] | 20.6 µM [falling, single point] |
| O=C(CN1C(=O)C2CCCCC2C1=O)Nc1cccc([N+](=O)[O-])c1 (stereo not drawn) | -28.1% | 2.91 µM [falling, full curve, poor fit] | – |
| Cc1ccc(-c2c(C)sc3nc[nH]c(=O)c23)cc1C | -48.1% | 23.1 µM [falling, partial curve, poor fit] | – |

| Structure (SMILES) | cell number change | AC50 [1] | AC50 [2] |
| --- | --- | --- | --- |
| COc1ccc(CCNC(=O)c2ccc(S(=O)(=O)N(C)c3ccccc3)cc2)cc1OC | 2.17% | – | – |
| CN1CCC(N(C)S(=O)(=O)c2ccc(NC(=O)Cc3ccc(F)cc3)cc2)CC1 | -21.9% | – | 29.1 µM [rising, single point] |
| Cc1cc(/C=C2\SC(=S)NC2=O)c(C)[nH]1 | – | 0.82 µM [falling, partial curve] | 0.58 µM [falling, partial curve] |
| CN(CC(=O)NCc1cccnc1)S(=O)(=O)c1ccc(F)cc1 | 7.66% | – | 16.4 µM [rising, partial curve] |
| COc1ccc(-c2ccc(C#N)c(SCC(=O)Nc3sc4c(c3C#N)CCC4)n2)cc1OC | – | – | 0.461 µM [rising, partial curve, poor fit] |
| COc1cc(OC)cc(C(=O)NCCC(c2ccccc2)c2ccccc2)c1 | 309% | 20.6 µM [rising, single point] | 29.1 µM [rising, single point] |
| CCN(CC)S(=O)(=O)c1ccc(Cl)c(NC(=O)CCCCl)c1 | 11.8% | – | – |
| CC(=O)Nc1nc(S(=O)(=O)c2ccc(C)cc2)c(Cl)s1 | – | – | 6.51 µM [falling, single point] |
| COc1ccc(C(=O)Nn2cnc3ccccc3c2=O)c(OC)c1 | 29.6% | 4.61 µM [rising, full curve, poor fit] | 5.8 µM [rising, full curve] |
| Cc1nc2ccc([N+](=O)[O-])cc2c(=O)n1Cc1ccc(Cl)cc1 | -7.25% | – | 29.1 µM [falling, single point] |
| COc1ccc(CCn2c(-c3ccccc3)nc3c(c(=O)c4ccccc4n3C)c2=O)cc1 | 20.9% | – | 7.31 µM [rising, full curve, poor fit] |
| Cn1c(CN2CCN(C(=O)c3ccccc3)CC2)nc2cc([N+](=O)[O-])ccc21 | – | – | 6.51 µM [rising, single point] |
| O=C1CCC(=O)N1c1ccccc1OS(=O)(=O)c1ccccc1 | 5.87% | – | 29.1 µM [rising, single point] |
| O=C(Nc1cccc(Cl)c1)c1cnc[nH]1 | 12.3% | – | 0.00517 µM [rising, full curve, poor fit] |
| CC1(C)NC(=O)N(CC(O)COC2CCCCC2)C1=O (stereo not drawn) | -18.3% | – | 29.1 µM [rising, single point] |
| COc1ccc(CNC(=O)CN(c2cc(C)cc(C)c2)S(=O)(=O)c2c(C)[nH]c(=O)[nH]c2=O)cc1 | -21.3% | – | – |
| CCOC(=O)c1ccccc1NC(=O)CSc1ccc(-c2ccccn2)nn1 | -10.4% | – | 20.6 µM [falling, single point] |
| O=C(CSc1ncccn1)N/N=C/c1cccc(OC2CSC2)c1 | -22.3% | – | 29.1 µM [falling, single point] |
| O=C(c1cccnc1)N1C2CCC1CC(O)(c1ccc(F)cc1)C2 (stereo not drawn) | 19.8% | – | 0.00461 µM [falling, full curve, poor fit] |

Entries of single compounds, looked up by structure:
CN(CC(=O)NCc1cccnc1)S(=O)(=O)c1ccc(F)cc1 reads cell number change: 7.66%; AC50 [2]: 16.4 µM [rising, partial curve]
COc1cc(OC)cc(C(=O)NCCC(c2ccccc2)c2ccccc2)c1 reads cell number change: 309%; AC50 [1]: 20.6 µM [rising, single point]; AC50 [2]: 29.1 µM [rising, single point]
